PubChem BioAssay AID1259254, NCATS – 2017
Screen: 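Genome-wide screen for genes that prevent DNA re-replication in cancer cells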 (primary screen). Cells: human HCT116 colorectal cancer cells. Reagent: single siRNA against human genes. Duration: 3 days. Measured: 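Nuclei stained with Hoechst and imaged; cell-cycle phase assigned by DNA content; G2 share scaled per plate, non-targeting siRNA 0%, GMNN siRNA 100%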. Scale: G2 robust z-score and G2 cells, % of GMNN control: higher = more G2 cells, more excess DNA replication. Hit rule: 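An siRNA counts as active if its G2 robust z-score lies at least 5 MADs above the screen median; here such calls match roughly 38% of GMNN control or more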.
Here is a random part of about 59,000 deposited reagents. About 1,550 of them (2.6%) were called active. 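G2 share is only a proxy for re-replication; each gene was hit by three separate siRNAs, and active genes were retested.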 Reagents against one gene are numbered here. Not all columns of the deposit are shown. Not given: the amount of reagent.

{"gene": "DPM1", "reagent": 1, "G2 robust z-score": 0.121, "G2 cells, % of GMNN control": 3.82, "activity call": "inactive"}
{"gene": "DPM1", "reagent": 2, "G2 robust z-score": 3.38, "G2 cells, % of GMNN control": 26.8, "activity call": "inactive"}
{"gene": "DPM1", "reagent": 3, "G2 robust z-score": -0.526, "G2 cells, % of GMNN control": -0.735, "activity call": "inactive"}
{"gene": "TRHDE", "reagent": 1, "G2 robust z-score": 0.951, "G2 cells, % of GMNN control": 9.66, "activity call": "inactive"}
{"gene": "TRHDE", "reagent": 2, "G2 robust z-score": -0.957, "G2 cells, % of GMNN control": -3.77, "activity call": "inactive"}
{"gene": "TRHDE", "reagent": 3, "G2 robust z-score": -0.794, "G2 cells, % of GMNN control": -2.62, "activity call": "inactive"}
{"gene": "ITGBL1", "reagent": 1, "G2 robust z-score": -0.0663, "G2 cells, % of GMNN control": 2.5, "activity call": "inactive"}
{"gene": "ITGBL1", "reagent": 2, "G2 robust z-score": -0.206, "G2 cells, % of GMNN control": 1.52, "activity call": "inactive"}
{"gene": "ITGBL1", "reagent": 3, "G2 robust z-score": -1.01, "G2 cells, % of GMNN control": -4.17, "activity call": "inactive"}
{"gene": "DDI1", "reagent": 1, "G2 robust z-score": 3.37, "G2 cells, % of GMNN control": 26.7, "activity call": "inactive"}
{"gene": "DDI1", "reagent": 2, "G2 robust z-score": 0.0022, "G2 cells, % of GMNN control": 2.98, "activity call": "inactive"}
{"gene": "DDI1", "reagent": 3, "G2 robust z-score": -0.458, "G2 cells, % of GMNN control": -0.258, "activity call": "inactive"}
